These results are taken from US7129053 (DAKOCYTOMATION DENMARK A S, dated 2006).

By UniProt entry, the sequences of proteins in these tests, tags left out.
UniProt P77872: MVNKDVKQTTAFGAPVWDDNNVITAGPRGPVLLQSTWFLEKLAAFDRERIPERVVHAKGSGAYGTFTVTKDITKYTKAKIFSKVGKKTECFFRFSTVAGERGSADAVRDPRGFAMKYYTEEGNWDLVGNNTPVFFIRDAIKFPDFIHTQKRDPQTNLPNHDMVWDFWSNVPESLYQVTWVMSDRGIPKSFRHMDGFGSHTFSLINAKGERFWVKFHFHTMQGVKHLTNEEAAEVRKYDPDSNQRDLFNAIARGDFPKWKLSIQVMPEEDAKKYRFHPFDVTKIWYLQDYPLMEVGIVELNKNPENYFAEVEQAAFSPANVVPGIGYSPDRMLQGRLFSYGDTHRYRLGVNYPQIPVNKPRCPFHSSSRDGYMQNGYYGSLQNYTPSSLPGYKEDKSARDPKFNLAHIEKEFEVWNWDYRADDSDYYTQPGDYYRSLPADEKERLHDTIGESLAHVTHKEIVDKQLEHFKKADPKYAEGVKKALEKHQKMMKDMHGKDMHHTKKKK

Test [1] addresses H. pylori catalase (Helicobacter pylori) (UniProt P77872). The test can be described thus: Western blot on reduced purified antigen, culture supernatant.
Test [2] has the same target. The test can be described thus: Western blot on reduced purified antigen; member identified by Table 2.

These are yes or no findings as the source states them, for the method shown. Some binding calls cover weakened binding; strength is not graded here.

B1: monoclonal antibody HP25.6m/1B5 (antibody, IgG1, V domains shown)
VH: EVQLQQSGAELVKPGASVKLSCTSSGFNIKDTYVHWMKQRPEQGLEWIGKIDPANGKTKYDPIFQAKATMTADASSNTAYLQLSSLTSEDTAVYYCALPIYYASSWFAYWGQGTLVTVSA
VL: DIVMTQSHKFMSTSVGDRVSITCKASQDVGTSVAWYQQKPGHSPKLLIYWTSTRHTGVPDRFTGSGSGTDFILTISNVQSEDLADYFCQQYSSSPTFGGGAKVEIK
notes: also called HP25.6m1/1B5
Turning to B1, the binding result in test [1] and in test [2] was “binds” each time.

B2: monoclonal antibody HP25.2m/2H10 (antibody, IgG2a, V domains shown)
VH: VQLLEQPGAELAKPGASVKMSCKASGYTFTNYWIHWVKQRPGQGLKWIGYINPATGSTSYNQDFQDRATLTADKSSTTAYMQLTSLTSEDSSVYYCAREGYDGFDSWGQGTTLTVSS
VL: ELVLTQSPAIMSASPGEKVTMTCSASSSVNYMYWYQQKSGTSPKRWIYDTSKLASGVPARFSGSGSGTSYSLTLSSMEAEDAATYYCQQWSSNPYTFGGGTKLEIK
notes: also called HP25.2m/2H10 (K10); HP25.2m/2Hallin (K10)
As for B2, the binding result in test [1] and in test [2] was “binds” in each case.
